Test system: tonic hind limb extensor convulsions induced by electroshock (generalised seizure)
Assay: mini-MEST (maximal electroshock seizure threshold) test in the mouse
Details: i.p., 30 min post dose, diazepam 2.5 mg/kg, Compound I 100 mg/kg, Compound II 150 mg/kg
Procedure: The maximal electroshock seizure threshold (MEST) test is widely utilized preclinically to evaluate pro- or anti-convulsant properties of test compounds (Loscher et al., 1991).
In the MEST test the ability of a drug to alter the seizure threshold current required to induce hind limb tonic extensor convulsions is measured according to an “up and down” method of shock titration (Kimball et al., 1957). An increase in seizure threshold is indicative of anti-convulsant effect.
The ability of a test compound to alter the stimulus intensity, expressed as current (mA), required to induce the presence of tonic hind limb extensor convulsions, is assessed in the MEST.
Naïve mice were acclimatised to the procedure room in their home cages for up to 7 days, with food and water available ad libitum.
All animals were weighed at the beginning of the study and randomly assigned to treatment groups based on a mean distribution of body weight across groups.
The first animal within a treatment group was given a shock at the expected or estimated CC50 current. […]
Test compound effects were also calculated as percentage change in CC50 from the vehicle control group.
Significant difference between drug-treated animals and controls were assessed according to Litchfield and Wilcoxon (1949).

For `CN1C(=O)CN=C(c2ccccc2)c2cc(Cl)ccc21` [Diazepam, diazepam, reference compound], the “CC50 +/- SEM (current producing tonic hind limb extension in 50% of animals)” value (N=6) was 97.8 ± 3.7 mA and the “CC50 +/- SEM (current producing tonic hind limb extension in 50% of animals)” value (N=6, listed as diazepam) was 97.8 mA.
